Measured values taken from publication PMC7806630, “Molecular basis of the interaction of the human tyrosine phosphatase PTPN3 with the hepatitis B virus core protein” (Scientific Reports, 2021).
These are yes or no findings as the source states them, for the method shown. For part of these data: Binding seen in cells or lysates may run through a third protein. Some entries that bind do so weakly or less than the wild type.

By UniProt entry, the sequences of proteins in these tests, tags left out. Residues count along the entry.
PDZ domain of PTPN3 (PTPN3-PDZ), residues 489-597 (P26045, residues 489-597): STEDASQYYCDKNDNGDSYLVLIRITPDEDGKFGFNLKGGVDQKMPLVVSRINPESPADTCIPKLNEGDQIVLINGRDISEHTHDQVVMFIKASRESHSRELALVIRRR
PDZ domain of PTPN3, residues 504-597, of the holdup assay (P26045, residues 504-597): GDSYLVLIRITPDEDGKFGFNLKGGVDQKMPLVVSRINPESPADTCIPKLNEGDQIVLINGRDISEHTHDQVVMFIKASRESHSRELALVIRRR
UniProt P03146: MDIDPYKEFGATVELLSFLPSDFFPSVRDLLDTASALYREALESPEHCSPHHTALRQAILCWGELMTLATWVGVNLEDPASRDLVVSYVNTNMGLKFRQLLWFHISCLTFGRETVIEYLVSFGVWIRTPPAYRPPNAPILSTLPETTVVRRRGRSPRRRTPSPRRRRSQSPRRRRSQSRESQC
UniProt Q6P0Q8, residues 1104-1192: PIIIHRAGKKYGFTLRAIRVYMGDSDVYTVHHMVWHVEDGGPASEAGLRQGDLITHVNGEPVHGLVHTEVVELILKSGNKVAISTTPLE
UniProt Q6ZWJ1, residues 19-105: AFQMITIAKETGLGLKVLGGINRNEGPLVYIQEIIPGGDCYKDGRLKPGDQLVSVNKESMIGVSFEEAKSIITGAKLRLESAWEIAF

biological target: GST-tagged PTPN3 PDZ domain (GST-PTPN3-PDZ) (human) (UniProt P26045); assay: pull-down; only the target purified

Molecule | binding
HA-Flag-tagged wild-type full-length HBc (HF-HBc WT) (from UniProt P03146 1-183) | binds

biological target: T1, biotinylated PBM-HBc peptide (hepatitis B virus); assay: holdup assay; automated high-throughput holdup assay, biotinylated PBM-HBc peptide against the human PDZ domain library, duplicates; threshold binding intensity 0.2
T1 sequence (peptide, biotin (position not stated)): RRRRSQSRESQC

Molecule | binding
PDZ domain of Microtubule-associated serine/threonine-protein kinase 2 (MAST2) (from UniProt Q6P0Q8 1104-1192) (domain or fragment) | binds
PDZ domain of PTPN3, residues 504-597, of the holdup assay (from UniProt P26045 504-597) (domain or fragment) | binds
PDZ domain of Syntaxin-binding protein 4 (STXB4) (from UniProt Q6ZWJ1 19-105) (domain or fragment) | binds
PDZ domain of GIPC1 (domain or fragment, UniProt O14908 133-213) EVEVFKSEDALGLTITDNGAGYAFIKRIKEGSVIDHIHLISVGDMIEAINGQSLLGCRHYEVARLLKELPRGRTFTLKLTE | binds
PDZ domain of GIPC2 (domain or fragment, UniProt Q8TF65 117-197) EVNVYKSEDSLGLTITDNGVGYAFIKRIKDGGVIDSVKTICVGDHIESINGENIVGWRHYDVAKKLKELKKEELFTMKLIE | binds
PDZ domain of beta-1-syntrophin (SNTB1) (domain or fragment, UniProt Q13884 112-195) GVKVLKQELGGLGISIKGGKENKMPILISKIFKGLAADQTQALYVGDAILSVNGADLRDATHDEAVQALKRAGKEVLLEVKYMR | binds
PDZ domain of alpha-1-syntrophin (SNTA1) (domain or fragment, UniProt Q13424 87-170) RVTVRKADAGGLGISIKGGRENKMPILISKIFKGLAADQTEALFVGDAILSVNGEDLSSATHDEAVQVLKKTGKEVVLEVKYMK | binds
PDZ domain of beta-2-syntrophin (SNTB2) (domain or fragment, UniProt Q13425 115-198) RVRVVKQEAGGLGISIKGGRENRMPILISKIFPGLAADQSRALRLGDAILSVNGTDLRQATHDQAVQALKRAGKEVLLEVKFIR | binds
PDZ domain of Signal-induced proliferation-associated 1-like protein 2 (SIPA1L2) (domain or fragment, UniProt Q9P2F8 950-1026) EMTLRRNGLGQLGFHVNFEGIVADVEPFGFAWKAGLRQGSRLVEICKVAVATLTHEQMIDLLRTSVTVKVVIIQPHD | binds
PDZ domain of Synaptojanin-2-binding protein (SYNJ2BP) (domain or fragment, UniProt P57105 13-100) EINLTRGPSGLGFNIVGGTDQQYVSNDSGIYVSRIKENGAAALDGRLQEGDKILSVNGQDLKNLLHQDAVDLFRNAGYAVSLRVQHRL | binds

biological target: PDZ domain of PTPN3 (PTPN3-PDZ), residues 489-597 (human) (UniProt P26045); assay: NMR titration; 1H,15N HSQC-TROSY of 15N-labelled PTPN3-PDZ (95 uM) with unlabelled full-length HBc as CLPs added to ratios PDZ:HBc 1:0, 1:1.4, 1:5.6, 1:19.4; 20 °C; both purified

Molecule | binding
full-length HBc (hepatitis B virus core protein) assembled into capsid-like particles (from UniProt P03146 1-183) | binds
